No constants are given. Whether binding was seen depends on the method and setting. Some binding calls cover weakened binding; strength is not graded here.
T1: asialofetuin (standard glycoprotein, MW 48.4 kDa) (UniProt P12763)
T1 sequence (chain, glycoprotein without sialic acid; carries up to nine LacNAc epitopes): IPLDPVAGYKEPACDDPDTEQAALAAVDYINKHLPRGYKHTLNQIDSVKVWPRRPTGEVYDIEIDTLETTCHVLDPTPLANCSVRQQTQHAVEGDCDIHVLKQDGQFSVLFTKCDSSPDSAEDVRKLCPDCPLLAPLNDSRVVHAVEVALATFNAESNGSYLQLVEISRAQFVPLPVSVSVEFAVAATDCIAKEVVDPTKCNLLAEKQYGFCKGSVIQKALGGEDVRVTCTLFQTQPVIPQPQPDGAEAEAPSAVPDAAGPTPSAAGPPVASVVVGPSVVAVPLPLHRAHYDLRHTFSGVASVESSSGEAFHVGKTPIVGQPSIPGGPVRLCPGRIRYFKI


Target: T1, asialofetuin (standard glycoprotein, MW 48.4 kDa)
Test: ELISA; competitive ELISA; ASF (0.1 µM) coated; serial dilutions of inhibitor in EPBS (PBS with 2 mM EDTA) with Gal-4 (2.5 µM) or Gal-4NL/Gal-4CL (25 µM), 2 h; bound galectin detected with HRP-conjugated anti-His antibody; both purified

| Binder | binding |
| --- | --- |
| Galectin-4 (whole, His6-tagged construct of human Gal-4) (natural protein, UniProt P56470 1-323, looked up, Galectin-4, human, whole protein (two CRDs joined by the linker peptide); also called whole Gal-4; total Gal-4; not shown: His6, N-terminal, kept) MAYVPAPGYQPTYNPTLPYYQPIPGGLNVGMSVYIQGVASEHMKRFFVNFVVGQDPGSDVAFHFNPRFDGWDKVVFNTLQGGKWGSEERKRSMPFKKGAAFELVFIVLAEHYKVVVNGNPFYEYGHRLPLQMVTHLQVDGDLQLQSINFIGGQPLRPQGPPMMPPYPGPGHCHQQLNSLPTMEGPPTFNPPVPYFGRLQGGLTARRTIIIKGYVPPTGKSFAINFKVGSSGDIALHINPRMGNGTVVRNSLLNGSWGSEEKKITHNPFGPGQFFDLSIRCGLDRFKVYANGQHLFDFAHRLSAFQRVDTLEIQGDVTLSYVQI | binds |
| N-terminal subunit of Gal-4 with 10 linker residues (Gal-4NL, aa 1-160) (domain or fragment, human, UniProt P56470 1-160, looked up, Galectin-4, human, N-terminal CRD (aa 1-150) with 10 further residues of the inter-domain linker at the C-terminus (aa 1-160); made by PCR from the Gal-4 plasmid, NdeI/XhoI; not shown: His6, N-terminal, kept) MAYVPAPGYQPTYNPTLPYYQPIPGGLNVGMSVYIQGVASEHMKRFFVNFVVGQDPGSDVAFHFNPRFDGWDKVVFNTLQGGKWGSEERKRSMPFKKGAAFELVFIVLAEHYKVVVNGNPFYEYGHRLPLQMVTHLQVDGDLQLQSINFIGGQPLRPQGP | binds |
| C-terminal subunit of Gal-4 with 10 linker residues (Gal-4CL, aa 169-323) (domain or fragment, human, UniProt P56470 169-323, looked up, Galectin-4, human, C-terminal CRD (aa 179-323) with 10 further residues of the inter-domain linker at the N-terminus (aa 169-323); made by PCR from the Gal-4 plasmid, NdeI/XhoI; not shown: His6, N-terminal, kept) PGHCHQQLNSLPTMEGPPTFNPPVPYFGRLQGGLTARRTIIIKGYVPPTGKSFAINFKVGSSGDIALHINPRMGNGTVVRNSLLNGSWGSEEKKITHNPFGPGQFFDLSIRCGLDRFKVYANGQHLFDFAHRLSAFQRVDTLEIQGDVTLSYVQI | binds |

— article PMC10223884, “Oligosaccharide Ligands of Galectin-4 and Its Subunits: Multivalency Scores Highly” (Molecules, 2023)
